{"source": "the supplement of paper PMC3334620", "note": "The full ranking holds about 33,000 sequences; the median of “E-score (-0.5 to 0.5)” is about -8e-05, and the highest 2% start at about 0.23. The list shows a part of the results.", "data": [{"molecular_target": "T1, Nrg2 (UniProt P38082)", "T1 sequence": "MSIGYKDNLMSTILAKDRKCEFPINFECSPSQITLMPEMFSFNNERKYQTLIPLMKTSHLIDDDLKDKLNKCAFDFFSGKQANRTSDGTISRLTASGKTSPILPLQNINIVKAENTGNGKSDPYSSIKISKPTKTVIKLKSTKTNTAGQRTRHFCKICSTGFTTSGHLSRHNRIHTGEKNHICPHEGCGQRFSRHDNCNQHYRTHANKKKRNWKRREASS", "assay": "PBM E-score (8-mer binding enrichment) (E-score (-0.5 to 0.5)); higher = stronger / more preferred TF binding", "details": "protein concentration: 100 nM; construct: GST-full length", "procedure,_shortened": "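The E-score, a modified Wilcoxon-Mann-Whitney statistic, was computed by the Universal PBM Analysis Suite for every ungapped eight-base word pooled with its reverse complement. Scans behind it were normalised with masliner after bound GST-tagged yeast transcription factors were detected with fluorescent anti-GST. The proteins, at about 100-200 nM, had been applied to universal all-10-mer Agilent arrays made double-stranded by primer extension.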", "values": [{"sequence": "AAGTAACC", "PBM E-score": -0.0437}, {"sequence": "GCGACAAC", "PBM E-score": 0.105}, {"sequence": "ATGCGTCA", "PBM E-score": -0.0453}, {"sequence": "GCCTAATA", "PBM E-score": -0.00098}, {"sequence": "CCTCATTC", "PBM E-score": -0.0122}, {"sequence": "TAGACCGA", "PBM E-score": -0.0381}, {"sequence": "CTATAAAA", "PBM E-score": -0.0779}, {"sequence": "ATCGTATG", "PBM E-score": 0.0645}, {"sequence": "CCTTCCCA", "PBM E-score": -0.0778}, {"sequence": "AGTGGGAT", "PBM E-score": 0.189}, {"sequence": "AAGACCCA", "PBM E-score": -0.181}, {"sequence": "GCACACGC", "PBM E-score": -0.0698}, {"sequence": "AAATAACA", "PBM E-score": 0.166}, {"sequence": "CTAATACA", "PBM E-score": 0.0806}, {"sequence": "GATACGGC", "PBM E-score": -0.296}, {"sequence": "TAATCTAA", "PBM E-score": -0.0332}, {"sequence": "CCAGAAGC", "PBM E-score": -0.0649}, {"sequence": "ATAGCCCC", "PBM E-score": -0.167}, {"sequence": "GCCAAGCA", "PBM E-score": -0.0136}, {"sequence": "CAGATCAA", "PBM E-score": 0.046}, {"sequence": "CCATCAAA", "PBM E-score": 0.0552}, {"sequence": "GTATCATA", "PBM E-score": 0.251}, {"sequence": "CTGGACTC", "PBM E-score": -0.0788}, {"sequence": "AAGCCTTC", "PBM E-score": -0.183}, {"sequence": "CGGTGAAG", "PBM E-score": -0.222}, {"sequence": "ACGTCAGA", "PBM E-score": -0.0813}, {"sequence": "CAAGTCGC", "PBM E-score": -0.0924}, {"sequence": "CCATCTCA", "PBM E-score": -0.0134}, {"sequence": "ACCTTCAA", "PBM E-score": -0.222}, {"sequence": "ACGAGCAC", "PBM E-score": 0.0475}, {"sequence": "AGAAATTG", "PBM E-score": 0.119}, {"sequence": "GGCCTATA", "PBM E-score": -0.266}, {"sequence": "CCATCGCA", "PBM E-score": -0.0171}, {"sequence": "CTACTCTC", "PBM E-score": -0.0448}, {"sequence": "ATACGCTC", "PBM E-score": 0.106}, {"sequence": "AGTGCGGC", "PBM E-score": 0.0106}, {"sequence": "AATTTTAG", "PBM E-score": -0.0248}, {"sequence": "CGTTGGTC", "PBM E-score": -0.0935}, {"sequence": "CCTTTCGC", "PBM E-score": 0.108}, {"sequence": "ACTCCTAT", "PBM E-score": -0.134}, {"sequence": "CACCGTAG", "PBM E-score": -0.0924}, {"sequence": "CGGGTACA", "PBM E-score": -0.0794}, {"sequence": "CGCCCGCG", "PBM E-score": 0.0878}, {"sequence": "CTCCGGGA", "PBM E-score": -0.202}, {"sequence": "AGATGCGA", "PBM E-score": 0.143}, {"sequence": "CCAAGAGA", "PBM E-score": -0.14}, {"sequence": "CATCTGCG", "PBM E-score": 0.0643}, {"sequence": "CGTTTTGA", "PBM E-score": 0.12}, {"sequence": "AGTTGAAA", "PBM E-score": -0.0291}, {"sequence": "CCAGTGGA", "PBM E-score": -0.0548}, {"sequence": "CCGACAAG", "PBM E-score": -0.0391}, {"sequence": "ATATGTGA", "PBM E-score": 0.0921}, {"sequence": "CCCTCTCC", "PBM E-score": -0.243}, {"sequence": "CTTCACAC", "PBM E-score": 0.0494}, {"sequence": "ATAGTAGG", "PBM E-score": 0.0354}, {"sequence": "AGGTTCAA", "PBM E-score": 0.00542}, {"sequence": "CTGTGCGC", "PBM E-score": -0.0545}, {"sequence": "TACCTAAA", "PBM E-score": -0.0138}, {"sequence": "GGGCGGAC", "PBM E-score": -0.254}, {"sequence": "ATAACTGA", "PBM E-score": 0.122}, {"sequence": "TGGCACAA", "PBM E-score": 0.0248}, {"sequence": "GTTGAAAC", "PBM E-score": 0.0316}, {"sequence": "ACATTACT", "PBM E-score": -0.0152}, {"sequence": "GAGTAATA", "PBM E-score": 0.232}, {"sequence": "CCATTAAC", "PBM E-score": 0.0566}, {"sequence": "AGACTCTC", "PBM E-score": -0.145}, {"sequence": "TCGTGGAA", "PBM E-score": 0.171}, {"sequence": "CGAGATTA", "PBM E-score": 0.252}, {"sequence": "AAGAAGCC", "PBM E-score": 0.162}, {"sequence": "AACGTCAT", "PBM E-score": -0.0964}, {"sequence": "AGTTAGGC", "PBM E-score": -0.0404}, {"sequence": "AGCATCAA", "PBM E-score": 0.129}, {"sequence": "ACGTCCGG", "PBM E-score": -0.139}, {"sequence": "CACTTGTC", "PBM E-score": 0.0228}, {"sequence": "GGGCTTTA", "PBM E-score": -0.211}, {"sequence": "ACGCTGAA", "PBM E-score": -0.149}, {"sequence": "CTAGCCGA", "PBM E-score": 0.0809}, {"sequence": "GCGCCTCC", "PBM E-score": -0.202}, {"sequence": "TAACTCCA", "PBM E-score": -0.0545}, {"sequence": "AAGACCGT", "PBM E-score": -0.264}, {"sequence": "CTTATGGC", "PBM E-score": -0.0261}, {"sequence": "GTCCAACA", "PBM E-score": 0.0526}, {"sequence": "CTCGCTGC", "PBM E-score": 0.178}, {"sequence": "AGTCCCGA", "PBM E-score": -0.109}, {"sequence": "ACCTAAGG", "PBM E-score": -0.0627}, {"sequence": "ATGGGATG", "PBM E-score": -0.056}]}]}
